Results on two substances are retold here after paper PMC10176823.

Chains of the proteins cited; added tags and fusions are not shown.
UniProt P37231: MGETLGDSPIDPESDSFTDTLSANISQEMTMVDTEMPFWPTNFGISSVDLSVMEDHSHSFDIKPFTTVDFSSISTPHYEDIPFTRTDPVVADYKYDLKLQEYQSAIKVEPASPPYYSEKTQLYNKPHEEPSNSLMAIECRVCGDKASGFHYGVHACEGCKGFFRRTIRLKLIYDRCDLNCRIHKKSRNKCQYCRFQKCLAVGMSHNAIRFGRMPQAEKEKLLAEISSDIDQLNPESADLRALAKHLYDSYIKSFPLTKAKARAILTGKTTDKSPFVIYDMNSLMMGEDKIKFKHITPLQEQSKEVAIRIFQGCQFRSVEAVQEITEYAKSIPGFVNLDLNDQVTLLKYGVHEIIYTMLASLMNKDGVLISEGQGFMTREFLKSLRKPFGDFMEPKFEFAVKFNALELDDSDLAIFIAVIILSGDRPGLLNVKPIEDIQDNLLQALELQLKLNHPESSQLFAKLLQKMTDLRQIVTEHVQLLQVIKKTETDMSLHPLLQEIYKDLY
UniProt Q14676: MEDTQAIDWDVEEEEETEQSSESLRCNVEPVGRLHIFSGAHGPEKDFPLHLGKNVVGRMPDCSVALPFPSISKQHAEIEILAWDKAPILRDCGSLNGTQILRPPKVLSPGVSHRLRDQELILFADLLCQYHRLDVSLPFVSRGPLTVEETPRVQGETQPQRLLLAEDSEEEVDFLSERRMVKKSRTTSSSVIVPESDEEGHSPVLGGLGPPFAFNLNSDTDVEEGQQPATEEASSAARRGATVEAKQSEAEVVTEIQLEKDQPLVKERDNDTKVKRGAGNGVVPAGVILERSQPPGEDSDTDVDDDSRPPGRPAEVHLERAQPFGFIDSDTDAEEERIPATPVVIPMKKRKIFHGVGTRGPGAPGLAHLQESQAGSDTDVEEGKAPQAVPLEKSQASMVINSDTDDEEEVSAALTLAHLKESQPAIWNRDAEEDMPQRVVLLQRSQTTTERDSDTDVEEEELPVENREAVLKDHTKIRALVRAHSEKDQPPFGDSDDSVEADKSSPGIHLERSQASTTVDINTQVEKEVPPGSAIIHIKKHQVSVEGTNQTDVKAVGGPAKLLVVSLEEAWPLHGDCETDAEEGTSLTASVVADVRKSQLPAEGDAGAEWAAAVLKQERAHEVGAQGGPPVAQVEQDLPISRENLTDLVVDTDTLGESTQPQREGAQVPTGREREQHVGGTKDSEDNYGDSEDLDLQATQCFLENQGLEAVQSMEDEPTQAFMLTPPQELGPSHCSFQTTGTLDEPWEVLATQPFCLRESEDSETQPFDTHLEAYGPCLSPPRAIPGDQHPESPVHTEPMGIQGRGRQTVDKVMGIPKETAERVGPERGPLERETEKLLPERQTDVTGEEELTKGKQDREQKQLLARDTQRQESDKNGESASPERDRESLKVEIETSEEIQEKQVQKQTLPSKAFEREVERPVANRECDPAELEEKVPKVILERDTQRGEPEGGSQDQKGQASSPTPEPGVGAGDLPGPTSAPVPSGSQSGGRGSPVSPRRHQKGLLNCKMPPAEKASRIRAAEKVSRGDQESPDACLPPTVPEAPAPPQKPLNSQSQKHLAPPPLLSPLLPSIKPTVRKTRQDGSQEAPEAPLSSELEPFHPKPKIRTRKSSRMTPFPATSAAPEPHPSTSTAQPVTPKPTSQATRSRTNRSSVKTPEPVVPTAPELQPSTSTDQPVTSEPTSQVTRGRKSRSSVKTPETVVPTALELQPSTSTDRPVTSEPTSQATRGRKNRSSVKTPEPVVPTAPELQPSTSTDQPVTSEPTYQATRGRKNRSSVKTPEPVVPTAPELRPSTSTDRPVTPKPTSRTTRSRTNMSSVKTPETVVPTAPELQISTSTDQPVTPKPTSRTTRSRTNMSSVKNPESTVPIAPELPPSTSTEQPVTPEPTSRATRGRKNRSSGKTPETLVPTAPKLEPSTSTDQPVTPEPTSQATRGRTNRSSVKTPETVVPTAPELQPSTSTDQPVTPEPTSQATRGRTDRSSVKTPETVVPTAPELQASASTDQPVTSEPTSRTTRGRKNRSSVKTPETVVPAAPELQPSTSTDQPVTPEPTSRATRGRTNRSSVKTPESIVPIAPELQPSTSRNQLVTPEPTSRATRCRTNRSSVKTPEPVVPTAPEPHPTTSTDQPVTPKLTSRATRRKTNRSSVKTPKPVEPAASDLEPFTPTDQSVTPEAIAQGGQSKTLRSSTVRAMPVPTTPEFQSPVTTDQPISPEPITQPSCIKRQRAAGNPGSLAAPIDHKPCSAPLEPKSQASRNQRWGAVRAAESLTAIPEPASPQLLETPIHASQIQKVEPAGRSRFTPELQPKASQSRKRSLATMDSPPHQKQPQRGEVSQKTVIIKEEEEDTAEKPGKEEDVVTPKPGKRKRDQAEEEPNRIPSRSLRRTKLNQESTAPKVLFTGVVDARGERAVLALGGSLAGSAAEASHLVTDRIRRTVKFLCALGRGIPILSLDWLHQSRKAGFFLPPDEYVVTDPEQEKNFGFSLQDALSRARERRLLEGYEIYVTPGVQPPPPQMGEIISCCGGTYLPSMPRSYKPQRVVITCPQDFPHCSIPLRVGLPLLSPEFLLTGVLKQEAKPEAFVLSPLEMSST

Results are given in words; binding and its absence hold for the method and conditions named. In cells and extracts the contact can be indirect. Some results given as binding are weak or reduced against the parent protein; the word gives no strength.

In the assay the target is T1, inhibitor of differentiation 3 (ID3), overexpressed from the ID3 overexpression plasmid (UniProt Q02535).
T1 sequence: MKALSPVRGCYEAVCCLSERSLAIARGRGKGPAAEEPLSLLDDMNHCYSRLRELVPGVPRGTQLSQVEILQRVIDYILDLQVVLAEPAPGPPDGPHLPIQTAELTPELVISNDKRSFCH
Nature of the assay: co-IP; lysate of HCT116-Id3 OE cells mixed overnight at 4 °C with anti-Myc agarose beads (anti-IgG agarose beads as control), washed twice with PBS, western blot with anti-MDC1, anti-PPARγ and anti-ID3.

In the case of “Peroxisome Proliferator-Activated Receptor γ (PPARγ), endogenous (from UniProt P37231 1-505)”, the binding entry is “binds”.
As for “Mediator of DNA damage checkpoint 1 (MDC1), endogenous (from UniProt Q14676 1-2089)”, the binding result is “binds”.
